Our source for the binding values is article doi:10.1101/2024.08.08.607204, “Mechanism of ASF1 Inhibition by CDAN1” (bioRxiv, 2024).

The chains behind the UniProt entries cited, without tags or fusion partners.
UniProt Q9Y294: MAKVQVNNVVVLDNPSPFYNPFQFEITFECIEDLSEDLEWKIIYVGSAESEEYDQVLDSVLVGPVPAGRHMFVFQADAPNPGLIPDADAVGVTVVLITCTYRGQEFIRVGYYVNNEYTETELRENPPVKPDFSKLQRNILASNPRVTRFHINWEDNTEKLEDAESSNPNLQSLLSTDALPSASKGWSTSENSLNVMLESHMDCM
UniProt Q9NVP2: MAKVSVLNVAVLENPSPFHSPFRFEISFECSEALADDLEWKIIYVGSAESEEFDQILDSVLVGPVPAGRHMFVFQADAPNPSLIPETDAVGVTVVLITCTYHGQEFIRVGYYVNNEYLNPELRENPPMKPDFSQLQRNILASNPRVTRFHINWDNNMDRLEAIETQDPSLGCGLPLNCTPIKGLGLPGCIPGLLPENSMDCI

Results are given in words; binding and its absence hold for the method and conditions named. Binding seen in cells or lysates may run through a third protein. Some binding calls cover weakened binding; strength is not graded here. For some assays here: Sequences can lack the tags named with a protein.

The chains are these.
B1: Strep-tagged CDAN1 (ST-CDAN1), wildtype (natural protein, human)
chain: MAAVLESLLREEVSVAAVVRWIARSTQGSEDNAGEAAALSSLRALRKEFVPFLLNFLREQSSRVLPQGPPTPAKTPGASAALPGRPGGPPRGSRGARSQLFPPTEAQSTAAEAPLARRGGRRRGPGPARERGGRGLEEGVSGESLPGAGGRRLRGSGSPSRPSLTLSDPPNLSNLEEFPPVGSVPPGPTGTKPSRRINPTPVSEERSLSKPKTCFTSPPISCVPSSQPSALDTSPWGLGLPPGCRSLQEEREMLRKERSKQLQQSPTPTCPTPELGSPLPSRTGSLTDEPADPARVSSRQRLELVALVYSSCIAENLVPNLFLELFFVFQLLTARRMVTAKDSDPELSPAVLDSLESPLFQSIHDCVFFAVQVLECHFQVLSNLDKGTLKLLAENERLLCFSPALQGRLRAAYEGSVAKVSLVMPPSTQAVSFQPETDNRANFSSDRAFHTFKKQRDVFYEVLREWEDHHEEPGWDFEKGLGSRIRAMMGQLSAACSHSHFVRLFQKQLLQMCQSPGGAGGTVLGEAPDVLSMLGADKLGRLWRLQERLMAPQSSGGPCPPPTFPGCQGFFRDFILSASSFQFNQHLMDSLSLKIQELNGLALPQHEPNDEDGESDVDWQGERKQFAVVLLSLRLLAKFLGFVAFLPYRGPEPPPTGELQDSILALRSQVPPVLDVRTLLQRGLQARRAVLTVPWLVEFLSFADHVVPLLEYYRDIFTLLLRLHRSLVLSQESEGKMCFLNKLLLLAVLGWLFQIPTVPEDLFFLEEGPSYAFEVDTVAPEHGLDNAPVVDQQLLYTCCPYIGELRKLLASWVSGSSGRSGGFMRKITPTTTTSLGAQPSQTSQGLQAQLAQAFFHNQPPSLRRTVEFVAERIGSNCVKHIKATLVADLVRQAESLLQEQLVTQGEEGGDPAQLLEILCSQLCPHGAQALALGREFCQRKSPGAVRALLPEETPAAVLSSAENIAVGLATEKACAWLSANITALIRREVKAAVSRTLRAQGPEPAARGERRGCSRACEHHAPLPSHLISEIKDVLSLAVGPRDPDEGVSPEHLEQLLGQLGQTLRCRQFLCPPAEQHLAKCSVELASLLVADQIPILGPPAQYRLERGQARRLLHMLLSLWKEDFQGPVPLQLLLSPRNVGLLADTRPREWDLLLFLLRELVEKGLMGRMEIEACLGSLHQAQWPGDFAEELATLSNLFLAEPHLPEPQLRACELVQPNRGTVLAQS
notes: Codanin-1 (CDAN1) cDNA from Horizon Discovery/Dharmacon; a point mutation of the clone (S421F) was corrected; in pCDNA3.1; Dimer by SEC-MALS and cryo-EM; Same plasmid used in Expi293 (purifications) and in Flp-In 293 T-REx (pulldowns); kept as one molecule; also called WT CDAN1; Strep-CDAN1; source: Expi293, transiently transfected, in lysate and purified in complexes (anti-FLAG, Strep-Tactin); …

Assay [1] addresses B1. The experiment in a line: pull-down; Strep-Tactin Sepharose pulldown of ST-CDAN1 variants from lysates of transfected Flp-In 293 T-REx cells (alone, or co-transfected with FLAG-tagged ASF1 variants), IP buffer with 1% Triton X-100, 1 hr at 4°C; immunoblotting. Background: A western blot detects proteins with antibodies after separation by electrophoresis.
In assay [2] the target is T1, Strep-CDAN1 H*+B* (S194A/R195A/R196 + R541A/R544A/R548A) (human) (UniProt Q8IWY9).
T1 sequence: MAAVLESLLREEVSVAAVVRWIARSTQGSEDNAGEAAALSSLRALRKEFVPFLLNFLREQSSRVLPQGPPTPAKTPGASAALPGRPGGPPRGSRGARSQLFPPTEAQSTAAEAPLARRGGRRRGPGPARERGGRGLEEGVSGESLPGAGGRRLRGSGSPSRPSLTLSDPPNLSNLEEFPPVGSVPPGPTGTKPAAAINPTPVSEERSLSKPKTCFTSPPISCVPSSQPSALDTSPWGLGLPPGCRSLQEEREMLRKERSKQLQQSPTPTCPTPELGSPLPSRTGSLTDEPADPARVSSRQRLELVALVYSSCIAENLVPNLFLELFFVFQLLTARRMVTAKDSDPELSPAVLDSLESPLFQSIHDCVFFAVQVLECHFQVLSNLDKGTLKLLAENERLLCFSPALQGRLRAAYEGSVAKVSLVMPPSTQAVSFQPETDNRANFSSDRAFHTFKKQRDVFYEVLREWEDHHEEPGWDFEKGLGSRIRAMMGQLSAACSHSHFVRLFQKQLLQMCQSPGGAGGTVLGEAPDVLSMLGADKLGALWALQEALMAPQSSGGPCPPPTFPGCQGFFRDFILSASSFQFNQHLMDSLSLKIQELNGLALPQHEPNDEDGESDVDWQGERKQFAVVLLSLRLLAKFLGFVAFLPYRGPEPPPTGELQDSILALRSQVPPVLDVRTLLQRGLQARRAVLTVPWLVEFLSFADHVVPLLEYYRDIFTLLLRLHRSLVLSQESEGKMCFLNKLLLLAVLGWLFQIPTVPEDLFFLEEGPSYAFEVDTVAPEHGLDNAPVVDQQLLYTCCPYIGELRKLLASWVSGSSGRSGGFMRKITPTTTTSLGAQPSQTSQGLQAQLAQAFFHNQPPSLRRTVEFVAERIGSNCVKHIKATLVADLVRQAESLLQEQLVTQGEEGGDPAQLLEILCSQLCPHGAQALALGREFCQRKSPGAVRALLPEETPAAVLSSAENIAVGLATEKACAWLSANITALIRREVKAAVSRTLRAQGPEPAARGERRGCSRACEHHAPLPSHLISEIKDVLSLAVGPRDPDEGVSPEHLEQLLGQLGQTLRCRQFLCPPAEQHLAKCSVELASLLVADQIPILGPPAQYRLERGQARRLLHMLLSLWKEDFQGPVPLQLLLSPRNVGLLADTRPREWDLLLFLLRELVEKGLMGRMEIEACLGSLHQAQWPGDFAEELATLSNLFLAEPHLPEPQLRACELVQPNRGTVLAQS
The assay is described as above.

The target of assay [3] is T2, FLAG-tagged CDIN1 (F-CDIN1) (UniProt Q9Y2V0).
T2 sequence: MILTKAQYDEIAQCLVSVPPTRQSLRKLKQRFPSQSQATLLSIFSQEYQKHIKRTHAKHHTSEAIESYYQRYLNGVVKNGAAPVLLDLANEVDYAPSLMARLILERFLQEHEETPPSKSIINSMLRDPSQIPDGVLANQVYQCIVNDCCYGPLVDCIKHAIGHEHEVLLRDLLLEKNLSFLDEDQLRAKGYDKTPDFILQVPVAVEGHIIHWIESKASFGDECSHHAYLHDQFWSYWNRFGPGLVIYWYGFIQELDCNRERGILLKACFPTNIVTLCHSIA
The experiment in a line: co-IP + pull-down; tandem purification from transiently transfected Expi293 cells: anti-FLAG immunoprecipitation, 3x FLAG peptide elution, then Strep-Tactin pulldown, desthiobiotin elution; Coomassie staining and immunoblotting.

Assay [4] has as its target FLAG-tagged ASF1A (F-ASF1A) (human) (UniProt Q9Y294). The assay is described as above.
Assay [5] has as its target T3, endogenous CDIN1 with a C-terminal HaloTag-FLAG (HF) epitope (human (endogenous in Flp-In 293 T-REx)) (UniProt Q9Y2V0).
T3 sequence: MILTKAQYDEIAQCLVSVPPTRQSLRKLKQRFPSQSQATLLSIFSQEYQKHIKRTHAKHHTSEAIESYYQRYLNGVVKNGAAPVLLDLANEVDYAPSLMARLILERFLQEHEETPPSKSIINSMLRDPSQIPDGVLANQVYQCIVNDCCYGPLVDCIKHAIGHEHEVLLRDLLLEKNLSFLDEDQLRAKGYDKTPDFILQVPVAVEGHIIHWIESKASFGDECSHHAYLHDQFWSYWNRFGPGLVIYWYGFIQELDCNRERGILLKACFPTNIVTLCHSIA
As to the kind of experiment: co-IP; anti-FLAG M2 agarose immunoprecipitation of endogenously HaloTag-FLAG-tagged CDAN1 or CDIN1 from Flp-In 293 T-REx lysates in IP buffer (50 mM HEPES pH 7.5, 100 mM KOAc, 2.5 Mg(OAc)2, 1% Triton X-100); immunoblotting.

In the case of “FLAG-tagged ASF1B (F-ASF1B) (from UniProt Q9NVP2 1-202)”, the binding entry in assay [1] is reported as “binds”; in assay [2], “no binding”. In the case of “HA-tagged ASF1A (from UniProt Q9Y294 1-204)”, in assay [3], the binding entry was “binds”. With “endogenous ASF1A (from UniProt Q9Y294 1-204) (other; other documents disagree on this pair)”, the binding result in assay [4] was “binds”. Turning to B1, the binding entry in assay [5] is recorded as “binds”.
